# Results published in ChEMBL document CHEMBL3612028, “Design, synthesis, pharmacological evaluation and molecular dynamics of β-amino acids morphan-derivatives as novel ligands for opioid receptors” (Eur J Med Chem, 2015).
# Sequences of proteins named here, by UniProt entry; tags and fusion partners are left off.
# UniProt B8JHS2, whole entry: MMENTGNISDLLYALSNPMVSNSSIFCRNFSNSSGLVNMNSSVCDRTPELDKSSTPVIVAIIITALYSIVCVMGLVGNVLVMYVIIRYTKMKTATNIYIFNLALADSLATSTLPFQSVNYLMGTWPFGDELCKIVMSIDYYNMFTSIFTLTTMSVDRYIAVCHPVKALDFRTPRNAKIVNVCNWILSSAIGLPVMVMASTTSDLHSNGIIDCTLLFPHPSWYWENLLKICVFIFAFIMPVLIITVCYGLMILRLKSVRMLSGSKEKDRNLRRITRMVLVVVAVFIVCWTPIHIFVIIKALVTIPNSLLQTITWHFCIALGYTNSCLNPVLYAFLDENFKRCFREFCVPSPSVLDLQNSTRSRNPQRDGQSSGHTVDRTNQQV
# Target: Mu opioid receptor-like OR2 (Danio rerio, UniProt B8JHS2)
# Experiment: Displacement of [3H]-diprenorphine from zebrafish mu opioid receptor expressed in HEK293 cells after 1 hr by liquid scintillation counting
# Assay type: cell-based
smiles,measurement,value
CN1CC[C@]23c4c5ccc(O)c4O[C@H]2[C@@H](O)C=C[C@H]3[C@H]1C5 [MORPHINE],Ki,187 nM
